The values below come from PMC12254500.

Protein sequences, listed by entry. Tags and fused reporters are not part of them. Lines headed by an entry give the natural chain unless they say otherwise; changes in a name come on top.
UniProt Q9UHY1: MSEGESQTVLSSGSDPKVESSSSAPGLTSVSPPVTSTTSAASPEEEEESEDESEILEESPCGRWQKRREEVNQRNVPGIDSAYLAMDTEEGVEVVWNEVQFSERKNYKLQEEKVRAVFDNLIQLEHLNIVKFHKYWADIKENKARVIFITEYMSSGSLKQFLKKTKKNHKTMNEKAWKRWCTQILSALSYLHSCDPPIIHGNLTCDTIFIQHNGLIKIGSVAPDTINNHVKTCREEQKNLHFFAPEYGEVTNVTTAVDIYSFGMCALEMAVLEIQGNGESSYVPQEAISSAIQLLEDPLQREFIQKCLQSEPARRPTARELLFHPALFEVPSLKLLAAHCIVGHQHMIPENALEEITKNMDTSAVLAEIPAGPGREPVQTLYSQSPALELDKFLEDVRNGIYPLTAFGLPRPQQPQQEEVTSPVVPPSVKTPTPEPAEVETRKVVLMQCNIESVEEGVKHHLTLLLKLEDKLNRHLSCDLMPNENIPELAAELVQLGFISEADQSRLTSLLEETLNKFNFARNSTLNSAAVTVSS
UniProt Q9NSY0: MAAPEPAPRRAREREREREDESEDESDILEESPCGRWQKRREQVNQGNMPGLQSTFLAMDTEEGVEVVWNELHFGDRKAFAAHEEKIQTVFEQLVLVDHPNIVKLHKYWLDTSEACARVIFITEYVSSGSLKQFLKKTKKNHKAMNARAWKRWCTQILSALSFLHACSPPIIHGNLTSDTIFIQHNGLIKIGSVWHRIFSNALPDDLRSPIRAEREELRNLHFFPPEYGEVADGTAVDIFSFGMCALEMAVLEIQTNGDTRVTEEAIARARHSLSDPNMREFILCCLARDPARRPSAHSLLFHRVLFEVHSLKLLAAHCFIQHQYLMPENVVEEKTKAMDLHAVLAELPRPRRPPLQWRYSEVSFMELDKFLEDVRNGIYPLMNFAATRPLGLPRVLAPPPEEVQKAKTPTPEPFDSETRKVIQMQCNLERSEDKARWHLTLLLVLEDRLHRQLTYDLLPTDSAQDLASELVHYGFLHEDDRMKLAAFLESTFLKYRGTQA

Results are given in words; binding and its absence hold for the method and conditions named. In cells and extracts the contact can be indirect. Binding can be weak; no strength is given.

This assay concerns the target Flag-NRBP1 (full-length NRBP1) (human) (UniProt Q9UHY1). As to the kind of experiment: co-IP; HEK293T cells; Flag antibody used to pull down Flag-NRBP1; co-precipitated NRBP1 or NRBP2 variants by blot; CHAPS-based buffer.

“full-length NRBP2 mutant lacking the NRB motif (from UniProt Q9NSY0)”: the binding result is “binds”.
For the substance “full-length NRBP2 mutant lacking the dimerization region (from UniProt Q9NSY0)”, the binding entry was “binds”.
